Laboratory results as given in PubChem BioAssay AID504444 (National Center for Advancing Translational Sciences (NCATS), 2011).
Among all 360,000 compounds or so, about 7,500 (2.1%) were called active. Inconclusive means that the source gave no clear call. Such entries were picked first, then a sample of the others. Calls come from the whole dose curve; as a rule, active = well fitted inhibition curve with a large enough effect; inconclusive = small, poorly fitted or top-dose-only effect, or effect the other way; inactive = flat fitted curve, though single readings scatter. A potency beside an inconclusive call is a rough fit, not a confirmed value.

Assay: Nrf2 qHTS screen for inhibitors; note: nearly all actives have a fitted effect of over 60% in size
Conditions: A549 ARE-Fluc reporter, luciferase luminescence, 18-24 h; series mostly up to 46 µM
Summary of the method: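 Nrf2 function is reported as luminescence of an ARE-controlled luciferase in A549 cells. Compounds were tested at several concentrations, and a CellTiter-Fluor read on the same wells flagged cytotoxicity.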
Potency is the fitted concentration of half-maximal effect.

Compound | Potency
COc1ccc(/C(N)=N/OC(=O)CSc2ccc(C)cc2)cc1OC | inconclusive: 5.8 µM [activator, partial curve, poor fit]
CCc1c(C)nc2cc(-c3ccc(Cl)cc3)[nH]n2c1=O | inconclusive: 23.1 µM [activator, partial curve]
O=C(NCCc1cccc(Cl)c1)c1cccs1 | inconclusive: 8.2 µM [activator, partial curve]
COC(=O)c1ccc(/C=C/c2ccc3cccc(OC)c3n2)cc1 | inactive
CCOC(=O)N1CCN(C(=O)c2ccc3c(c2)sc2nc(-c4ccccc4)cn23)CC1 | inactive
O=C(NCc1cccnc1)c1ccc(COc2ccccc2Br)cc1 | inconclusive: 9.2 µM [falling, partial curve, poor fit]
Cc1cccc(-c2noc(CN(C(=O)C34CC5CC(CC(C5)C3)C4)C(C)C)n2)c1 | inactive
Cc1ccc(NC(=O)C2Cc3ccccc3O/C2=N\O)cc1C (stereo not drawn) | inconclusive: 25.9 µM [activator, single point]
CC(=O)c1ccc(OCCCC(=O)Nc2ccc(C)c(S(=O)(=O)N(C)C)c2)cc1 | inconclusive: 29.1 µM [falling, partial curve, poor fit]
COC(=O)c1cccc(-c2noc(-c3ccccc3F)n2)c1 | inconclusive: 1.03 µM [activator, full curve, poor fit]
CCC(C)Sc1cc(-c2nc3ccc(C)cn3c2NCc2ccccc2)ccc1OC (stereo not drawn) | active: 20.6 µM
Oc1ccc2ccccc2c1-c1sc(Nc2ccccc2)n[n+]1-c1ccc(F)cc1 | inactive
O=C(c1ccccn1)N1CCN(c2cccc(C(F)(F)F)c2)CC1 | inconclusive: 4.61 µM [falling, partial curve, poor fit]
CCN(CC)C(C)C(=O)Nc1c2c(cc3c1CCC3)CCC2 (stereo not drawn) | inactive
CC(=NNC(=S)N1CCCCCC1)c1ccccn1 | active: 1.16 µM
COCC(=O)Nc1cc(C(=O)NCCc2ccccc2)ccc1Cl | inconclusive: 0.146 µM [activator, full curve]
c1ccc(C(c2nnnn2C2CCCCC2)N2CCc3ccccc3C2)nc1 (stereo not drawn) | inactive
C=CCOc1c(Br)cc(/C=N/Nc2ccc(C(=O)O)cc2)cc1OCC | inconclusive: 10.3 µM [activator, partial curve]
O=C(Nc1ccn(Cc2ccccc2)n1)c1n[nH]c([N+](=O)[O-])c1Cl | inconclusive: 0.651 µM [activator, full curve]
Cc1ccn2cc(-c3ccc(NS(=O)(=O)c4ccccc4)cc3)nc2c1 | inactive
CCOC(=O)C1=C(c2ccccc2)NC(SCC(=O)Nc2ccccc2C)=C(C#N)C1c1ccco1 (stereo not drawn) | inconclusive: 14.6 µM [falling, partial curve]
COc1ccc(C2Nc3ccccc3C(=O)N2Cc2ccc(Cl)cc2)cc1COc1ccc(NC(C)=O)cc1 (stereo not drawn) | inconclusive: 6.51 µM [activator, single point]
CCCOc1cccc(-c2cc(C(=O)N/N=C/c3cccnc3)c3ccccc3n2)c1 | inconclusive: 29.1 µM [activator, single point]

Individual results from the list.
CCc1c(C)nc2cc(-c3ccc(Cl)cc3)[nH]n2c1=O – Potency: inconclusive: 23.1 µM [activator, partial curve]
Cc1cccc(-c2noc(CN(C(=O)C34CC5CC(CC(C5)C3)C4)C(C)C)n2)c1 – Potency: inactive
CCOC(=O)N1CCN(C(=O)c2ccc3c(c2)sc2nc(-c4ccccc4)cn23)CC1 – Potency: inactive
Cc1ccn2cc(-c3ccc(NS(=O)(=O)c4ccccc4)cc3)nc2c1 – Potency: inactive

(more compounds)

Compound | Potency
O=C(CCN1C(=O)C2CC=CCC2C1=O)Nc1nc(-c2ccc(F)c(F)c2)cs1 (stereo not drawn) | inconclusive: 29.1 µM [falling, single point]
COC(=O)c1ccc(NC(=O)COC(=O)COc2cccc3c2OC(C)(C)C3)cc1 | inactive
O=C(NCc1ccco1)c1ccc(COc2cc(Cl)ccc2Cl)cc1 | inconclusive: 23.1 µM [falling, single point]
CC1(C)CC(=O)C2=C(C1)OC(/N=C/N1CCOCC1)=C(C#N)C2c1ccccc1 (stereo not drawn) | inconclusive: 25.9 µM [falling, single point]
O=C(CSc1ncnc2c1nnn2Cc1ccccc1)NC1CCCCC1 | inconclusive: 14.6 µM [falling, partial curve, poor fit]
O=C(NCc1cccc(OC(F)(F)F)c1)c1ccc2c(c1)S(=O)(=O)c1cc(Cl)ccc1C2=O | inconclusive: 11.6 µM [falling, partial curve, poor fit]
Cc1ccc(C(=O)N2CCC(N3CCC(C(=O)N4CCOCC4)CC3)CC2)cc1C | inactive
CCCc1nc2oc3c(NCCN4CCOCC4)ncnc3c2c2c1CCCC2 | inconclusive: 29.1 µM [activator, single point]
CCOC(=O)Cc1csc(NC(=O)CSc2nc(N)c3c(C)c(C)sc3n2)n1 | inconclusive: 0.517 µM [falling, full curve, poor fit]
COc1cccc(NC(=S)N(CCCN2CCOCC2)Cc2cn(C)c3ccccc23)c1 | inconclusive: 16.4 µM [falling, partial curve, poor fit]
Cc1oc2cc([N+](=O)[O-])c(O)c([N+](=O)[O-])c2c1C(=O)c1ccc(Cl)cc1 | inconclusive: 18.4 µM [falling, single point]
CCOc1ccc(Nc2ncnc3ccc([N+](=O)[O-])cc23)cc1 | inactive
CCOC(=O)c1[nH]c2ccccc2c1NC(=O)CCN1CCN(C(=O)OCC)CC1 | inactive
COc1cc(NC(=O)COc2cc(O)c3c(c2)OC(C)(C)CC3=O)cc(OC)c1OC | inconclusive: 29.1 µM [falling, single point]
NC(=O)c1ccccc1NC(=O)c1ccc(-c2ccc(Br)cc2)o1 | inconclusive: 2.06 µM [activator, partial curve]
COc1ccccc1NC(=O)CN1C(=O)NC2(CCCc3ccccc32)C1=O (stereo not drawn) | inactive
CCc1ccc(NC(=O)CCn2nc(-c3ccccc3OC)c3c(C)cc(C)nc32)cc1 | inconclusive: 29.1 µM [falling, single point]
CON(C)S(=O)(=O)c1cccc(C(=O)Nc2ccc(S(=O)(=O)NC3=NCCCCC3)cc2)c1 | inconclusive: 29.1 µM [falling, single point]
Cc1ccc(-c2nnc(Nc3cccc(O)c3)c3ccccc23)cc1S(=O)(=O)N1CCOCC1 | active: 16.4 µM
Nc1ccc(C(=O)N/N=C/c2cn(Cc3ccccc3F)c3ccccc23)cc1 | inactive
COc1ccccc1OC(C)C(=O)Nc1ccc(-c2nc3ccccc3s2)cc1 (stereo not drawn) | inconclusive: 2.06 µM [activator, full curve, poor fit]
CCOc1ccc2nc(N3CCC(C(=O)N4CCN(c5ncccn5)CC4)CC3)sc2c1 | inactive
CC(C)c1ccc(NC(=O)c2n[nH]c(=O)c3ccccc23)cc1 | inconclusive: 7.31 µM [activator, partial curve, poor fit]

Filtered by structure, the entries above containing two or more sulfur atoms
Compound | Potency
CCOC(=O)Cc1csc(NC(=O)CSc2nc(N)c3c(C)c(C)sc3n2)n1 | inconclusive: 0.517 µM [falling, full curve, poor fit]
CON(C)S(=O)(=O)c1cccc(C(=O)Nc2ccc(S(=O)(=O)NC3=NCCCCC3)cc2)c1 | inconclusive: 29.1 µM [falling, single point]

Following part:

Compound | Potency
CCOC(=O)N1CCN(C(=O)c2cc3c(-c4cccc(OC)c4)nn(C)c3s2)CC1 | inconclusive: 20.6 µM [falling, single point]
CCC(C(=O)NCc1ccccc1)n1nc(C)c2sc3ccccc3c2c1=O (stereo not drawn) | inconclusive: 20.6 µM [activator, single point]
CC1(c2ccc(OC(F)F)cc2)NC(=O)N(CC(=O)NC2CCCC2)C1=O (stereo not drawn) | inactive
CSc1nsc(SCC(=O)Nc2ccccc2C(N)=O)n1 | inconclusive: 32.6 µM [falling, partial curve, poor fit]
O=C(Nc1cc(Cl)ccc1-n1cncn1)c1ccco1 | inactive
O=C(CSc1ccccn1)Nc1ccc2[nH]c(=O)[nH]c2c1 | inactive
O=S(=O)(c1ccc2c(c1)CCC2)N1CCNCC1 | inactive
CN(Cc1ccccc1)C(=O)Nc1ccc2c(c1)N(C)C(=O)c1ccccc1S2 | inconclusive: 29.1 µM [falling, single point]
CSc1nc2ccc(NC(=O)c3ccc(=O)n(C)n3)cc2s1 | inconclusive: 6.51 µM [activator, partial curve, poor fit]
Cc1cc(C)n(CCc2nc(-c3ccc(-c4ccccc4)cc3)cs2)n1 | inconclusive: 29.1 µM [falling, single point]
Cn1c(SCc2ccc([N+](=O)[O-])cc2)nc2c(c1=O)SCC2 | inconclusive: 16.4 µM [falling, partial curve]
CC(=O)Nc1ccc2nc(NC(=O)COc3ccccc3C)sc2c1 | inactive
Cc1ccc(-n2ncc(C(=O)NCc3cccs3)c2C2CCN(C(=O)OC(C)(C)C)CC2)c(C)c1 | inconclusive: 29.1 µM [falling, single point]
COc1ccc(C(=O)Nc2ccc3ccccc3n2)c(OC)c1OC | inconclusive: 0.731 µM [activator, partial curve]
COc1ccc(CCNc2nc(-c3sc(C)nc3C)cs2)cc1OC | active: 20.6 µM
CCCn1c2c(c(=N)c3c1CCC3)CCCC2 | inconclusive: 25.9 µM [falling, partial curve, poor fit]
COc1cc2cc(CNc3ccc(C)cc3)c(=O)n(CC(=O)Nc3ccc(F)cc3F)c2cc1OC | inconclusive: 18.4 µM [activator, single point]
O=c1c2ccccc2oc2c1ccc1ccccc12 | inconclusive: 11.6 µM [activator, partial curve]
CCOc1ccc2nc(N/C(N)=N/C(=S)Nc3ccc(OC)cc3)nc(C)c2c1 | inactive
CC(=O)N1CCOc2ccc(S(=O)(=O)N(C)c3cccc(C)c3)cc21 | inconclusive: 16.4 µM [falling, partial curve, poor fit]
Cn1c(CNc2ccccc2)nc2ccccc21 | inconclusive: 3.26 µM [activator, full curve]
Cc1cccc(OCC(=O)Nc2ccc(Cl)c(-c3nc4ncccc4o3)c2)c1C | inconclusive: 16.4 µM [falling, partial curve]
